Data: publication PMC7131911
No constants are given. Whether binding was seen depends on the method and setting. Binding seen in cells or lysates may run through a third protein. Some entries that bind do so weakly or less than the wild type.

Sequences of proteins named here, by UniProt entry; tags and fusion partners are left off.
UniProt Q08857: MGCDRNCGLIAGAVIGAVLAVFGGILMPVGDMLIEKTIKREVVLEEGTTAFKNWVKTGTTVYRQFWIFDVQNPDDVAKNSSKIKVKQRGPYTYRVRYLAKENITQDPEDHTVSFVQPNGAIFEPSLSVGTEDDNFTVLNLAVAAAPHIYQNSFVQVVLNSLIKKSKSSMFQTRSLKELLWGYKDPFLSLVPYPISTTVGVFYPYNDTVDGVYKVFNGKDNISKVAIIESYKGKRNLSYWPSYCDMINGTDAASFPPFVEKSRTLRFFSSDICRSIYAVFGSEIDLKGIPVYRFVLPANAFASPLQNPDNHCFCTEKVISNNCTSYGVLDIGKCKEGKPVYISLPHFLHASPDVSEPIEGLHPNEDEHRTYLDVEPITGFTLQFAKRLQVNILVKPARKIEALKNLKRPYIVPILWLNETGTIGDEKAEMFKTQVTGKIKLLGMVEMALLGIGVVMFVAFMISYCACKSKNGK
UniProt Q9JMA1: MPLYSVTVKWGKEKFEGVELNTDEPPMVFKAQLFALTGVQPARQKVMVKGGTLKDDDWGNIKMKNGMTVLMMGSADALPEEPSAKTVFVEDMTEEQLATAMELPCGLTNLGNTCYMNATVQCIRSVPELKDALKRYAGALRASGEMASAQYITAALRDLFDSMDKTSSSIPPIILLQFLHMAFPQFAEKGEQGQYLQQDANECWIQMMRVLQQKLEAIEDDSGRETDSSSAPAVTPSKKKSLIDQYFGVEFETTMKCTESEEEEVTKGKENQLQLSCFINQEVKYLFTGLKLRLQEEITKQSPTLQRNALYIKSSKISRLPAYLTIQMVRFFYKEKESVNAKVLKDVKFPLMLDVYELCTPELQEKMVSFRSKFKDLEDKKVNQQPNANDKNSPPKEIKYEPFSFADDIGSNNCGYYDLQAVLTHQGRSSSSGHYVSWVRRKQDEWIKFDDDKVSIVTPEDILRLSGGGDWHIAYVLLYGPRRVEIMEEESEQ

How the values were obtained:
[1] = molecular target: CD36 (mouse (endogenous in RAW264.7)) (UniProt Q08857); assay: co-IP; RAW264.7 cell lysates; USP14 or CD36 antibody coupled to Dynabeads, lysate rotated 1-2 h, washed with PBS-T three times, immunoblotted for USP14 and CD36
[2] = molecular target: USP14 (mouse (endogenous in RAW264.7)) (UniProt Q9JMA1); assay: as above

Substance	binding [1]	binding [2]
USP14 (from UniProt Q9JMA1 1-493) (enzyme)	binds	–
CD36 (from UniProt Q08857 1-472) (receptor)	–	binds
